Reference: PubChem BioAssay AID1259267 (Sanger Institute, 2017)
Shown is one part, drawn at random, of 794 reagents tested. In the full data, 9 (1.1%) got an active call. 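Viability capped at 1; calls reflect loss of viability from knock-down alone, not synergy with drugs.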 Unmarked entries are inactive. Not given: the amount of reagent, the time to read-out.

Test: 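Which kinases and bowel-cancer genes GP5D cells need, with or without anchor drugs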 (primary screen)
System: human GP5D colorectal cancer cells
Knock-down reagent: siRNA pool against human genes
Treatment: anchor drugs at low dose: BYL719 1 µM, cetuximab 5 µg/ml, trametinib 10 nM, or DMSO vehicle
Measurement: 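Mean replicate viability versus non-targeting pool, given as knock-down-alone robust z-score, DMSO fraction, and synergy with low-dose BYL719, cetuximab or trametinib (1 µM, 5 µg/ml, 10 nM)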
Reading the numbers: robust z-score, knock-down alone and viability with DMSO: higher = more viable cells; synergy score with trametinib and synergy score with BYL719 and synergy score with cetuximab: higher = stronger synthetic lethal synergy with drug
Active means: 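Active (essential alone) if knock-down without drug gives robust z-score under -3; drug synergy does not count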
Meaning of the calls: active = essential alone; inactive = not essential

Target gene	robust z-score, knock-down alone	viability with DMSO (fraction of control)	synergy score with trametinib	synergy score with BYL719	synergy score with cetuximab
DCLK1	0.817	1	0.0289	-0.0395	-0.0629
DSTYK	0.736	0.983	0.263	0.174	-0.114
CEP290	0.817	1	0.0561	-0.25	0.0115
PKM	0.817	1	0.107	-0.185	-0.142
PIM3	0.817	1	0.0905	-0.361	-0.142
NME1	-1.48	0.513	-0.188	-0.51	-0.151
TSSK4	0.0628	0.84	0.289	-0.0573	-0.0301
HIPK2	0.73	0.981	0.11	-0.0893	-0.0367
MAP4K1	-0.073	0.811	0.0237	-0.296	-0.235
CDK6	0.429	0.918	-0.0367	-0.0432	-0.201
WHR1	0.817	1	-0.0766	-0.181	-0.0723
CAMK2A	0.0419	0.836	-0.198	-0.261	-0.159
NME7	0.817	1	-0.0995	-0.361	-0.142
NEK2	0.183	0.866	0.021	-0.0402	-0.127
ZAP70	0.228	0.875	0.303	-0.00389	0.0933
RIPK3	0.817	1	0.081	-0.0512	0.192
NEK10	0.817	1	-0.0212	-0.253	-0.103
MYO3B	0.817	1	-0.044	-0.0537	0.0279
ADPGK	0.653	0.965	-0.0737	-0.313	-0.172
CSNK2A2	-0.197	0.785	0.118	-0.207	0.116
HUNK	-2.63	0.269	-0.193	-0.06	0.048
MAPK1	0.817	1	0.121	0.0414	-0.0572
TYRO3	0.817	1	0.05	-0.141	-0.0675
CUL1	0.817	1	-0.197	-0.166	-0.123
ITPKA	0.817	1	0.0172	-0.222	-0.142
AK3	-0.3	0.763	0.182	-0.0599	-0.175
DYRK1B	-1.98	0.408	-0.0436	-0.41	-0.093
UCKL1	0.817	1	-0.0329	-0.221	-0.117
DGKA	-0.876	0.641	-0.0737	-0.124	-0.0808
TGFBR1	0.817	1	-0.161	-0.193	-0.142
MVK	0.68	0.971	0.122	0.111	-0.0415
KIT	0.121	0.852	0.218	-0.183	0.163
CDKL5	0.817	1	-0.0393	-0.322	0.165
APC	-0.648	0.689	0.0992	0.0693	0.0431

Copied from above for reference:
Target gene	robust z-score, knock-down alone	viability with DMSO (fraction of control)	synergy score with trametinib	synergy score with BYL719	synergy score with cetuximab
CDK6	0.429	0.918	-0.0367	-0.0432	-0.201
WHR1	0.817	1	-0.0766	-0.181	-0.0723
CAMK2A	0.0419	0.836	-0.198	-0.261	-0.159
NME7	0.817	1	-0.0995	-0.361	-0.142
